In patent publication US20250346890A1, “LEUKEMIA TREATMENT” (Deutsches Krebsforschungszentrum, priority 2019, published 2025):
These are yes or no findings as the source states them, for the method shown. Some results given as binding are weak or reduced against the parent protein; the word gives no strength. One block for each substance: values may come before it.

The chains behind the UniProt entries cited, without tags or fusion partners. Where a name states a change or a piece, a line headed by the entry shows the natural chain unless it says otherwise. A line that says so, or that is headed by a name, gives the form on record, which may keep a tag or linker. Residues count along the entry.
UniProt P36894: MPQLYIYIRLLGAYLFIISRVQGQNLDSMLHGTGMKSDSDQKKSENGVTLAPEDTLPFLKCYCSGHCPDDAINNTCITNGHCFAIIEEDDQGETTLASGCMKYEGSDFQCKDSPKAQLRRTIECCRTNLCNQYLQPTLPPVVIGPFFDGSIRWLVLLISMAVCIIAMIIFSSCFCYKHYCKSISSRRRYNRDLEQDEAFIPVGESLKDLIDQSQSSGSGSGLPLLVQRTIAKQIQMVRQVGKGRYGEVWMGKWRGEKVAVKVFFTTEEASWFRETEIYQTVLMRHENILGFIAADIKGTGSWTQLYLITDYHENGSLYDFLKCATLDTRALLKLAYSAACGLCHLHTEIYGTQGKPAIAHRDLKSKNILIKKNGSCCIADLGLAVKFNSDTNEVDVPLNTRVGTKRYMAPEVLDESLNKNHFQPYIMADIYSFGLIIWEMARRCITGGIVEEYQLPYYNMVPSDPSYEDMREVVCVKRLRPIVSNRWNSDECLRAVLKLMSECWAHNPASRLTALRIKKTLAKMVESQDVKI
human ALK3-HA expressed in HEK293T cells: residues 24-532 of P36894
ALK3^ECD-AP (extracellular domain of ALK3 fused to alkaline phosphatase, conditioned medium): residues 24-152 of P36894
UniProt Q6UXX9: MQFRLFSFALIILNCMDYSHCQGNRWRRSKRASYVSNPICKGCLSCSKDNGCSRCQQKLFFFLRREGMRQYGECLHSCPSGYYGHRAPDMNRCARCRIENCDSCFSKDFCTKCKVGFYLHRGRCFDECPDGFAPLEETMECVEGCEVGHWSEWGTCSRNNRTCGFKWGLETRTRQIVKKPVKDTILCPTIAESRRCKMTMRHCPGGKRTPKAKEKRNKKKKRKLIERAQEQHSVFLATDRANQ

What was measured:
[1] = target: ALK3^ECD-AP (extracellular domain of ALK3 fused to alkaline phosphatase, conditioned medium) (UniProt P36894); assay: in vitro binding assay: plate-coated ZNRF3 Fc, ALK3^ECD-AP preincubated with RSPO2; bound AP activity
[2] = target: human ALK3-HA expressed in HEK293T cells (human) (UniProt P36894); assay: cell surface binding assay on HEK293T cells transfected with human ALK3-HA, AP conditioned medium
[3] = target: ALK3^ECD-AP (extracellular domain of ALK3 fused to alkaline phosphatase, conditioned medium) (UniProt P36894); assay: in vitro binding assay: plate-coated recombinant RSPO2, ALK3^ECD-AP conditioned medium, bound AP chemiluminescence

- binding [1]: binds
Substance: RSPO2-Flag (human RSPO2 wild-type lacking the C-terminal domain, C-terminal Flag-tag, conditioned medium) (from UniProt Q6UXX9 22-204) (ligand)

- binding [2]: binds
Substance: human RSPO2^ΔC-AP (RSPO2 with the C-terminal domain replaced by alkaline phosphatase, conditioned medium) (from UniProt Q6UXX9 22-204) (ligand)

- binding [3]: binds
Substance: recombinant human RSPO2 (Peprotech 120-43) (from UniProt Q6UXX9 22-243) (ligand)
